In PMC5509376:
These are yes or no findings as the source states them, for the method shown. In cells and extracts the contact can be indirect. Some binding calls cover weakened binding; strength is not graded here.

Sequences of proteins named here, by UniProt entry; tags and fusion partners are left off. Residues count along the entry.
UniProt Q6PHU5, residues 74-825: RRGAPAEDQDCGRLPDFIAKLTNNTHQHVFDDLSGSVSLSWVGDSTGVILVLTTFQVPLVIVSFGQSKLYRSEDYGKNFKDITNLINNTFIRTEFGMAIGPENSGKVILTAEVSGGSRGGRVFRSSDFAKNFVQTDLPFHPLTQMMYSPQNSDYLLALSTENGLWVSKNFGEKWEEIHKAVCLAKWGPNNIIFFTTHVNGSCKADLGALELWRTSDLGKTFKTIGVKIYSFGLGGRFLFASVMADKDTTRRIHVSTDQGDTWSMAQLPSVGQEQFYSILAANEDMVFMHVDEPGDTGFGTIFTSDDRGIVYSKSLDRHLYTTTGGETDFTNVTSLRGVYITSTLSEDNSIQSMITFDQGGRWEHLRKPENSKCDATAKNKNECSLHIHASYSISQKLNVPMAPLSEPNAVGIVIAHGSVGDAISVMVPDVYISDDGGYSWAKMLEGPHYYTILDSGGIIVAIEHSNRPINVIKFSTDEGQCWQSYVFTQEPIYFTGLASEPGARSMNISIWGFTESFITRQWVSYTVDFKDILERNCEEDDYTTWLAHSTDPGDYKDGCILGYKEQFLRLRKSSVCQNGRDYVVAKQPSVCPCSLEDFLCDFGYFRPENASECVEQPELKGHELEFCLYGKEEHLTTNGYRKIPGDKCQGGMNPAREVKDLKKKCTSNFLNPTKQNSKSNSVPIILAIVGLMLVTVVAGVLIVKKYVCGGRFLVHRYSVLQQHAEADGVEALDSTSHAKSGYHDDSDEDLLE

Key:
[1] = target: sortilin (mouse (endogenous in N2a neuroblastoma cells)) (UniProt Q6PHU5); test: co-IP
[2] = target: cellular prion protein (mouse) (UniProt P04925); test: co-IP
[3] = target: cellular prion protein of mouse brain (mouse (endogenous in mouse brain)) (UniProt P04925); test: co-IP; mouse brain homogenate; SAF61 anti-PrP Ab

Substance | binding [1] | also measured
cellular prion protein (from UniProt P04925 23-230) | binds | –
sortilin (from UniProt Q6PHU5 74-825) (receptor) | – | binding [2]: binds
abnormally folded isoform of prion protein (from UniProt P04925 23-230) | binds | –
sortilin of mouse brain (from UniProt Q6PHU5 74-825) (receptor) | – | binding [3]: binds
